Test results: patent US20080181886A1, “Polypeptides That Bind Baff And/Or April” (Genentech, Inc., priority 2004, published 2008)
Results are given in words; binding and its absence hold for the method and conditions named. Some results given as binding are weak or reduced against the parent protein; the word gives no strength. Where a sequence is shown, tags or fusion partners need not be part of it.

Protein sequences, listed by entry. Tags and fused reporters are not part of them. Residues count along the entry.
UniProt Q9D777, residues 104-241: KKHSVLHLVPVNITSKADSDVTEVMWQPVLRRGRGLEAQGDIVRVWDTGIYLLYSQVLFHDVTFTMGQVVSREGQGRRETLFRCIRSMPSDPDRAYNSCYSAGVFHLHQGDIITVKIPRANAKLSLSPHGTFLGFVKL

Molecular target: TRX-APRIL (mouse) (UniProt Q9D777)
Assay: SPR competition

B1: TACI_d1d2 (residues 21-116 of the TACI extracellular domain, C-terminal His-tag) (receptor, not shown: small tags and cut ends)
chain: FPQGLWTGVAMRSCPEEQYWDPLLGTCMSCKTICNHQSQRTCAAFCRSLSCRKEQGKFYDHLLRDCISCASICGQHPKQCAYFCENKLRSPVNLPP
  binding: binds
